Measurements from PMC11530130, “Peripherally restricted PICK1 inhibitor mPD5 ameliorates pain behaviors in murine inflammatory and neuropathic pain models” (JCI Insight, 2024).
Values joined by “and” are separate entries in the source; they are usually repeats but may differ in a detail not shown here. Equal values may be shown once. This continues a long series; more values of the same kind are listed elsewhere.

Key:
[1] = system: mice, spared nerve injury (SNI) model; assay: SNI model of neuropathic pain, von Frey, single s.c. dose, male mice day 7; assay type: in vivo, mouse; details: for paw withdrawal threshold (von Frey), individual mice: SNI day 7, listed as Myr
Description: Induction of neuropathic pain (SNI model).
The initial SNI pain experiment (Figure 4A) was performed by Phenotype Expertise, Marseilles, France – Pain and CNS behaviour CRO under supervision of Stéphane Gaillard, PhD (CEO). Surgery was performed on 8-week-old C57BL/6J male mice (Charles River). The spared nerve injury surgery was performed on anaesthetized mice with a buprenorphine […]
solution (0.05 mg/kg) injected s.c. 30 min before surgery (10 μL/g). For surgery, mice were anaesthetised with ketamine (100 mg/kg, i.p.) and xylazine (10 mg/kg, i.p.) (volume 10 µL/g) with 100 μL of 1% xylocaine solution infiltrated at the site of the incision. The distal trifurcation of the sciatic nerve was identified, and the tibial and common peroneal branches were ligated with polypropylene nonabsorbable 6-0 sutures (Ethicon) and 1 mm was cut out, leaving the sural branch intact. The wound was closed with sutures, and the animals were allowed to recover and returned to their cages. Two subcutaneous injections of buprenorphine (0.05 mg/kg) were performed with an 8 to 12 hours delay decreasing pain due to the surgery […]
act. seven days post-surgery, a decrease of threshold response to von Frey filaments of […]
ipsilateral hind-paw was confirmed by von Frey filaments, corresponding to neuropathic pain […]
condition. The mechanical threshold response of the operated mice was measured with […]
calibrated von Frey filaments (“up/down” method) and the 50% threshold (g) was calculated.
The remaining SNI pain experiments were performed in-house using the following procedure.
SNI surgery was performed on the left hindleg of C57BL/6J male and female mice (Janvier, France) under 2% isoflurane anaesthesia. Skin on the lateral surface was incised between hip and knee followed by lengthwise division of the biceps femoris muscle leading to exposure of the three branches of the sciatic nerve. Sural branch was left intact, while the peroneal and tibial branches were ligated with a single surgical knot and axotomized distally of the ligation.
Wounds were closed with surgical glue or medical clips and animals were monitored daily for signs of stress or discomfort, but in all cases recovered uneventfully.
Induction of Diabetic neuropathy (STZ model).
Diabetes was induced by a single i.p. injection of […] streptozocin (STZ) solution (100 μL/10 g, Sigma-Aldrich S0130, batch #WXBB7152V) in male seven-week-old C57BL/6J (Charles River) mice. Glycemia was tested before, and seven days after injection. All injected mice had blood glucose concentration >350 mg/dL from day seven and were used for analgesic testing of the compounds from day 14. One mouse had to be euthanized at seven days post injection. This experiment was performed by Phenotype Expertise, Marseilles, France - Pain and CNS behaviour CRO under supervision of Stéphane Gaillard, PhD (CEO).
Induction of cancer induced bone pain (CIBP model).
Osteosarcoma cell line NCTC 2472 (American Type Culture Collection, CCL-11TM) was cultured for two weeks prior to surgery in NCTC-135 medium (Sigma-Aldrich, Denmark) supplemented with sodium hydrogen carbonate and 10% equine serum (Sigma-Aldrich, Denmark). On the day of surgery, cells were washed with PBS and incubated with 3 mL trypsin-EDTA for five min followed by centrifugation (2800 rpm, 3 min). Supernatant was removed, and cell pellet resuspended in PBS to obtain a cell density of 10^7 cells/mL.
Two separate cohorts of female C3H/HeNHsd mice (Envigo, Netherlands) of 7-8 weeks, were anaesthetized with 6.25 mg/kg xylazine (Rompun vet, 20 mg/mL, Bayer, KVP Pharma + Veterinär Produkte GmbH, Germany, Batch: KV02BHF) and 43.75 mg/kg ketamine (Ketaminol vet, 100 mg/mL, MSD Animal Health, AN Boxmeer, The Netherlands, Batch:
A140A01) and received 1.0-1.2% isoflurane (1000 mg/g isoflurane, Attane vet, ScanVet, Piramal Critical Care Ltd., UK, Batch: G123J18B) during surgery. The mouse was placed on a 37 °C heating pad. Both hind legs were shaved, and a small horizontal incision was made […]

[2] = system: mice, spared nerve injury (SNI) model; assay: SNI model, von Frey, repeated s.c. administration on 2 consecutive days; assay type: in vivo, mouse; design: von Frey threshold, Fig 7A, individual mice: unit not given here
Description: Repeated and sustained administration of mPD5 in the SNI model.
For the experiment with repeated administration of mPD5 (Figure 7A), male C57BL/6J (Janvier, France) mice underwent surgery leading to partial nerve injury, by cutting the peroneal and tibial nerves, producing hypersensitivity of the remaining sural nerve (SNI) as described in the “Induction of neuropathic pain (SNI model).”-section. On day 21 after surgery, hyperalgesia was confirmed by using von Frey filaments to induce mechanically evoked hypersensitivity and measure paw withdrawal threshold of the animals as described in the “Mechanically-evoked pain (von Frey).”-section. On the same day, mice were injected s.c. with 2, 10, or 50 μmol/kg mPD5 (10 μL/g) and evoked pain was tested again with the use of von Frey filaments at 1 and 5 hours after injection. 24 hours after the first injection, mice were injected s.c. with 2, 10, or 50 μmol/kg mPD5 (10 μL/g) again and evoked pain was tested with the use of von Frey filaments at 1, 5, and 24 hours after the second injection. […]

SMILES: CCCCCCCCCCCCCC(=O)N(CCOCCOCCC(=O)N[C@@H](Cc1c[nH]cn1)C(=O)N[C@@H](Cc1c[nH]c2ccccc12)C(=O)N[C@@H](CC(C)C)C(=O)N[C@@H](CCCCN)C(=O)N[C@H](C(=O)O)C(C)C)CCOCCOCCC(=O)N[C@@H](Cc1c[nH]cn1)C(=O)N[C@@H](Cc1c[nH]c2ccccc12)C(=O)N[C@@H](CC(C)C)C(=O)N[C@@H](CCCCN)C(=O)N[C@H](C(=O)O)C(C)C [mPD5, myristoyl-NPEG4-(HWLKV)2]
- paw withdrawal threshold (von Frey), individual mice ([1]; s.c. 2 μmol/kg, contralateral paw, 1 h): 0.674 and 0.829 (2×) and 0.539 and 1.019 and 0.68
- paw withdrawal threshold (von Frey), individual mice ([1]; s.c. 2 μmol/kg, contralateral paw, 2 h): 0.829 and 0.891 and 0.323 and 0.551 and 0.387 and 0.68
- paw withdrawal threshold (von Frey), individual mice ([1]; s.c. 2 μmol/kg, contralateral paw, 3 h): 1.149 and 2.127 and 0.68 and 0.356 and 0.457 and 0.219
- paw withdrawal threshold (von Frey), individual mice ([1]; s.c. 2 μmol/kg, contralateral paw, 4 h): 0.349 and 1.09 and 0.565 and 0.939 and 0.68 and 0.674
- paw withdrawal threshold (von Frey), individual mice ([1]; s.c. 2 μmol/kg, contralateral paw, 6 h): 0.939 and 0.674 and 0.683 and 0.539 and 0.398 and 0.769
- paw withdrawal threshold (von Frey), individual mice ([1]; s.c. 2 μmol/kg, ipsilateral paw, 1 h): 0.398 and 0.445 and 0.162 and 0.323 and 0.145 and 0.219
- paw withdrawal threshold (von Frey), individual mice ([1]; s.c. 2 μmol/kg, ipsilateral paw, 2 h): 0.356 (2×) and 0.07 and 0.195 and 0.219 and 0.107
- paw withdrawal threshold (von Frey), individual mice ([1]; s.c. 2 μmol/kg, ipsilateral paw, 3 h): 0.356 and 0.145 and 0.038 and 0.07 and 0.132 and 0.219
- paw withdrawal threshold (von Frey), individual mice ([1]; s.c. 2 μmol/kg, ipsilateral paw, 4 h): 0.195 and 0.07 (2×) and 0.079 and 0.107 and 0.074
- paw withdrawal threshold (von Frey), individual mice ([1]; s.c. 2 μmol/kg, ipsilateral paw, 6 h): 0.07 (4×) and 0.162 and 0.132
- paw withdrawal threshold (von Frey), individual mice ([1]; s.c. 10 μmol/kg, contralateral paw, 1 h): 1.149 and 1.785 and 1.348 and 0.387 and 0.674 and 1.004
- paw withdrawal threshold (von Frey), individual mice ([1]; s.c. 10 μmol/kg, contralateral paw, 2 h): 0.829 and 1.149 (2×) and 0.891 and 0.939 and 0.725
- paw withdrawal threshold (von Frey), individual mice ([1]; s.c. 10 μmol/kg, contralateral paw, 3 h): 0.551 and 1.09 and 0.939 and 0.539 and 0.767 and 1.149
- paw withdrawal threshold (von Frey), individual mice ([1]; s.c. 10 μmol/kg, contralateral paw, 4 h): 0.767 and 0.939 and 1.09 and 0.829 and 0.906 and 0.551
- paw withdrawal threshold (von Frey), individual mice ([1]; s.c. 10 μmol/kg, contralateral paw, 6 h): 0.683 and 0.767 (2×) and 0.939 and 0.539 and 0.725
- paw withdrawal threshold (von Frey), individual mice ([1]; s.c. 10 μmol/kg, ipsilateral paw, 1 h): 0.323 and 0.356 and 0.539 and 0.565 and 0.387 and 0.551
- paw withdrawal threshold (von Frey), individual mice ([1]; s.c. 10 μmol/kg, ipsilateral paw, 2 h): 0.683 and 0.674 and 0.398 (2×) and 0.906 and 0.767
- paw withdrawal threshold (von Frey), individual mice ([1]; s.c. 10 μmol/kg, ipsilateral paw, 3 h): 0.445 and 0.674 and 0.162 and 0.398 and 0.829 and 0.683
- paw withdrawal threshold (von Frey), individual mice ([1]; s.c. 10 μmol/kg, ipsilateral paw, 4 h): 0.219 and 0.152 and 0.263 and 0.398 and 0.07 and 0.441
- paw withdrawal threshold (von Frey), individual mice ([1]; s.c. 10 μmol/kg, ipsilateral paw, 6 h): 0.089 and 0.107 and 0.228 and 0.162 and 0.07 and 0.145
- von Frey paw withdrawal threshold, individual animals (Fig 5B) ([1]; dose group 2, contra, time 1): 1.4
- von Frey paw withdrawal threshold, individual animals (Fig 5B) ([1]; dose group 2, contra, time 5): 1 (3×) and 1.4 (3×)
- von Frey paw withdrawal threshold, individual animals (Fig 5B) ([1]; dose group 2, contra, time 24): 1.4 (4×) and 1 (2×)
- von Frey paw withdrawal threshold, individual animals (Fig 5B) ([1]; dose group 2, injured side, time 5): 0.4 and 0.16 (2×) and 0.6 and 1 and 0.07
- von Frey paw withdrawal threshold, individual animals (Fig 5B) ([1]; dose group 2, injured side, time 24): 0.16 (2×) and 0.07 (3×) and 0.4
- von Frey paw withdrawal threshold, individual animals (Fig 5B) ([1]; dose group 10, contra, time 5): 1.4 (4×) and 1 (2×)
- von Frey paw withdrawal threshold, individual animals (Fig 5B) ([1]; dose group 10, contra, time 24): 1 (4×) and 1.4 (2×)
- von Frey paw withdrawal threshold, individual animals (Fig 5B) ([1]; dose group 10, injured side, time 5): 1 (2×) and 0.6 and 0.16 (2×) and 0.4
- von Frey paw withdrawal threshold, individual animals (Fig 5B) ([1]; dose group 10, injured side, time 24): 0.07 (4×) and 0.16 (2×)
- von Frey paw withdrawal threshold, individual animals (Fig 5B) ([1]; dose group 50, contra, time 5): 1.4 (2×) and 1 (4×)
- von Frey paw withdrawal threshold, individual animals (Fig 5B) ([1]; dose group 50, contra, time 24): 1.4 (3×) and 1 (3×)
- von Frey paw withdrawal threshold, individual animals (Fig 5B) ([1]; dose group 50, injured side, time 5): 0.07 and 0.16 (2×) and 0.6 (2×) and 1
- von Frey paw withdrawal threshold, individual animals (Fig 5B) ([1]; dose group 50, injured side, time 24): 0.16 (3×) and 0.07 (2×) and 0.4
- von Frey threshold, contralateral paw, Fig 7A, individual mice ([2]; A_contra, hr 5 day2): 2
- von Frey threshold, contralateral paw, Fig 7A, individual mice ([2]; A_contra, hr 24 day 3): 1.4 (3×) and 1 (4×) and 2
- von Frey threshold, contralateral paw, Fig 7A, individual mice ([2]; B_contra, hr 5 day2): 2 (3×) and 1 (4×) and 1.4
- von Frey threshold, contralateral paw, Fig 7A, individual mice ([2]; B_contra, hr 24 day 3): 1.4 (3×) and 1 (4×) and 2
- von Frey threshold, contralateral paw, Fig 7A, individual mice ([2]; C_comtra, hr 5 day2): 1.4 (4×) and 1 (4×)
- von Frey threshold, contralateral paw, Fig 7A, individual mice ([2]; C_comtra, hr 24 day 3): 2 and 1 (5×) and 1.4 (2×)
- von Frey threshold, Fig 7A, individual mice ([2]; group 2, hr 5 day2): 0.6 (2×) and 0.4
- von Frey threshold, Fig 7A, individual mice ([2]; group 2, hr 24 day 3): 0.07 (3×) and 0.16 (4×) and 0.4
- von Frey threshold, Fig 7A, individual mice ([2]; group 10, hr 5 day2): 0.6 (2×) and 0.4 (3×) and 0.16
- von Frey threshold, Fig 7A, individual mice ([2]; group 10, hr 24 day 3): 0.16 (2×) and 0.4 (3×) and 0.07 (3×)
- von Frey threshold, Fig 7A, individual mice ([2]; group 50, hr 5 day2): 0.4 (5×) and 0.6 (2×) and 0.07
- von Frey threshold, Fig 7A, individual mice ([2]; group 50, hr 24 day 3): 0.4 (2×) and 0.07 (4×) and 0.16 (2×)
